Binding data for five molecules are collected here from publication PMC5080453.

No constants are given. Whether binding was seen depends on the method and setting. Some binding calls cover weakened binding; strength is not graded here.

Assay [1] addresses T1, human twisted gastrulation (Tsg), native (glycosylated) (human) (UniProt Q9GZX9).
T1 sequence (chain, N-linked glycans (three predicted N-linked glycosylation sites)): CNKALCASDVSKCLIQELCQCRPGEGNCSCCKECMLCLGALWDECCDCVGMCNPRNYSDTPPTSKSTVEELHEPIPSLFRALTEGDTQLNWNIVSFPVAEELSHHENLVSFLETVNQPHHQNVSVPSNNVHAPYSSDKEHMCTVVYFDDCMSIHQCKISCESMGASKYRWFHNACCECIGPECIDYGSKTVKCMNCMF
Kind of assay: SPR; ProteOn XPR36, GLC chip; Tsg immobilised by amine coupling (300 RU for ΔN-chordin and vWC2–3, 800 RU for vWC1-4CHRD and vWC1); chordin constructs injected at increasing concentrations; 25 °C, 10 mM HEPES, 150 mM NaCl, 3 mM EDTA, 0.05% Tween-20, pH 7.4, 50 μl/min; ΔN-chordin fitted to a 1:1 Langmuir model, vWC2–3 by equilibrium analysis; triplicate; both purified. (SPR reads the build-up and loss of mass on a sensor chip optically.)

The target in assay [2] is T2, natively deglycosylated human twisted gastrulation (Tsg) (human) (UniProt Q9GZX9).
T2 sequence (chain, N-linked glycans removed with PNGase-F under non-denaturing conditions): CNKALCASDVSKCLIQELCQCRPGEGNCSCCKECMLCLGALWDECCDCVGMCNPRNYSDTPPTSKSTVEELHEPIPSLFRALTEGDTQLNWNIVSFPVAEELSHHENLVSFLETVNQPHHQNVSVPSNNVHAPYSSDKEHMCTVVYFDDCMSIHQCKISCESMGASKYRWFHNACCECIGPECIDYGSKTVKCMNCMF
Nature of the assay: SPR; Supplementary Fig. 1; by the methods all interactions other than those of Fig. 4 were run on a Biacore T200, 25 °C, 10 mM Hepes, 150 mM NaCl, 3 mM EDTA, 0.005% Tween-20, pH 7.4, 30 μl/min; who was immobilised was not shown; both purified.

In assay [3] the target is T1, human twisted gastrulation (Tsg), native (glycosylated) (human). Nature of the assay: SEC-MALS; 0.5 ml at approximately 0.5 mg/ml on Superdex 200 10/300GL, 0.5 ml/min; 10 mM Tris–HCl, 150 mM NaCl, pH 7.4; native and deglycosylated Tsg; both purified. On the technique in general: In gel filtration, larger molecules generally elute earlier.
Assay [4] has the same target. Nature of the assay: AUC; velocity sedimentation, Tsg ~0.2 mg/ml, 25,000 rpm, 20 °C, monitored at 230 nm; both purified.
The target is the same in assay [5]. Kind of assay: SAXS; 1–6 mg/ml Tsg, 10 °C; radius of gyration compared with the hydrodynamic radius; both purified.
Assay [6] deals with T2, natively deglycosylated human twisted gastrulation (Tsg) (human). Nature of the assay: SEC-MALS; 0.5 ml at approximately 0.5 mg/ml on Superdex 200 10/300GL, 0.5 ml/min; 10 mM Tris–HCl, 150 mM NaCl, pH 7.4; native and deglycosylated Tsg; both purified.

B1: chordin vWC1 (residues 50–128) (domain or fragment, UniProt Q9H2X0 50-128)
chain: GCTFGGKVYALDETWHPDLGEPFGVMRCVLCACEAPQWGRRTRGPGRVSCKNIKPECPTPACGQPRQLPGHCCQTCPQE
Take B1: the binding entry in assay [1] is “binds weakly”.

B2: full-length human chordin (protein, UniProt Q9H2X0 27-955)
chain: AGPEPPVLPIRSEKEPLPVRGAAGCTFGGKVYALDETWHPDLGEPFGVMRCVLCACEAPQWGRRTRGPGRVSCKNIKPECPTPACGQPRQLPGHCCQTCPQERSSSERQPSGLSFEYPRDPEHRSYSDRGEPGAEERARGDGHTDFVALLTGPRSQAVARARVSLLRSSLRFSISYRRLDRPTRIRFSDSNGSVLFEHPAAPTQDGLVCGVWRAVPRLSLRLLRAEQLHVALVTLTHPSGEVWGPLIRHRALAAETFSAILTLEGPPQQGVGGITLLTLSDTEDSLHFLLLFRGLLEPRSGGLTQVPLRLQILHQGQLLRELQANVSAQEPGFAEVLPNLTVQEMDWLVLGELQMALEWAGRPGLRISGHIAARKSCDVLQSVLCGADALIPVQTGAAGSASLTLLGNGSLIYQVQVVGTSSEVVAMTLETKPQRRDQRTVLCHMAGLQPGGHTAVGICPGLGARGAHMLLQNELFLNVGTKDFPDGELRGHVAALPYCGHSARHDTLPVPLAGALVLPPVKSQAAGHAWLSLDTHCHLHYEVLLAGLGGSEQGTVTAHLLGPPGTPGPRRLLKGFYGSEAQGVVKDLEPELLRHLAKGMASLMITTKGSPRGELRGQVHIANQCEVGGLRLEAAGAEGVRALGAPDTASAAPPVVPGLPALAPAKPGGPGRPRDPNTCFFEGQQRPHGARWAPNYDPLCSLCTCQRRTVICDPVVCPPPSCPHPVQAPDQCCPVCPEKQDVRDLPGLPRSRDPGEGCYFDGDRSWRAAGTRWHPVVPPFGLIKCAVCTCKGGTGEVHCEKVQCPRLACAQPVRVNPTDCCKQCPVGSGAHPQLGDPMQADGPRGCRFAGQWFPESQSWHPSVPPFGEMSCITCRCGAGVPHCERDDCSLPLSCGSGKESRCCSRCTAHRRPAPETRTDPELEKEAEGS
Consider B2, for which the binding result in assay [2] was “binds”.

B3: human twisted gastrulation (Tsg), native (glycosylated) (protein, UniProt Q9GZX9 26-223)
chain: CNKALCASDVSKCLIQELCQCRPGEGNCSCCKECMLCLGALWDECCDCVGMCNPRNYSDTPPTSKSTVEELHEPIPSLFRALTEGDTQLNWNIVSFPVAEELSHHENLVSFLETVNQPHHQNVSVPSNNVHAPYSSDKEHMCTVVYFDDCMSIHQCKISCESMGASKYRWFHNACCECIGPECIDYGSKTVKCMNCMF
modifications: N-linked glycans (three predicted N-linked glycosylation sites)
For the molecule B3, the results for the binding entry in assay [3], in assay [4] and in assay [5] were “no binding (tested: approximately 0.5 mg/ml loaded)”, “no binding (tested: ~0.2 mg/ml)” and “no binding (tested: 6 mg/ml)”, respectively.

B4: natively deglycosylated human twisted gastrulation (Tsg) (protein, UniProt Q9GZX9 26-223)
chain: CNKALCASDVSKCLIQELCQCRPGEGNCSCCKECMLCLGALWDECCDCVGMCNPRNYSDTPPTSKSTVEELHEPIPSLFRALTEGDTQLNWNIVSFPVAEELSHHENLVSFLETVNQPHHQNVSVPSNNVHAPYSSDKEHMCTVVYFDDCMSIHQCKISCESMGASKYRWFHNACCECIGPECIDYGSKTVKCMNCMF
modifications: N-linked glycans removed with PNGase-F under non-denaturing conditions
For B4, in assay [6], the binding entry is given as “no binding (tested: approximately 0.5 mg/ml loaded)”.

B5: chordin vWC1-4CHRD (residues 27–650) (domain or fragment, UniProt Q9H2X0 27-650)
chain: AGPEPPVLPIRSEKEPLPVRGAAGCTFGGKVYALDETWHPDLGEPFGVMRCVLCACEAPQWGRRTRGPGRVSCKNIKPECPTPACGQPRQLPGHCCQTCPQERSSSERQPSGLSFEYPRDPEHRSYSDRGEPGAEERARGDGHTDFVALLTGPRSQAVARARVSLLRSSLRFSISYRRLDRPTRIRFSDSNGSVLFEHPAAPTQDGLVCGVWRAVPRLSLRLLRAEQLHVALVTLTHPSGEVWGPLIRHRALAAETFSAILTLEGPPQQGVGGITLLTLSDTEDSLHFLLLFRGLLEPRSGGLTQVPLRLQILHQGQLLRELQANVSAQEPGFAEVLPNLTVQEMDWLVLGELQMALEWAGRPGLRISGHIAARKSCDVLQSVLCGADALIPVQTGAAGSASLTLLGNGSLIYQVQVVGTSSEVVAMTLETKPQRRDQRTVLCHMAGLQPGGHTAVGICPGLGARGAHMLLQNELFLNVGTKDFPDGELRGHVAALPYCGHSARHDTLPVPLAGALVLPPVKSQAAGHAWLSLDTHCHLHYEVLLAGLGGSEQGTVTAHLLGPPGTPGPRRLLKGFYGSEAQGVVKDLEPELLRHLAKGMASLMITTKGSPRGELRGQVHIANQ
As for B5, in assay [1], the binding result is on record as “no binding”.
